No constants are given. Whether binding was seen depends on the method and setting. Some binding calls cover weakened binding; strength is not graded here.
Biological target: human cyclophilin A (human) (UniProt P62937)
Experiment: SPR; both purified

Chains of the proteins cited; added tags and fusions are not shown.
UniProt P62937: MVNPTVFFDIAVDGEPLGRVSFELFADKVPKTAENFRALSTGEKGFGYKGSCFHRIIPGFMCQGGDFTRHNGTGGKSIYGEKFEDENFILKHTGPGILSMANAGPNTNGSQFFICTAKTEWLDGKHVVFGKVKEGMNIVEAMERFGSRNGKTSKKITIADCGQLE

GCRHSRIGVTRQRRAR [Vpr^75-90]
binding: binds
